Data from patent US20120070451A1, “METHODS AND COMPOSITIONS FOR MODULATING CARDIAC CONTRACTILITY” (Consiglio Nazionale Delle Ricerche, priority 2009, published 2012).
These are yes or no findings as the source states them, for the method shown. In cells and extracts the contact can be indirect. Some results given as binding are weak or reduced against the parent protein; the word gives no strength.

By UniProt entry, the sequences of proteins in these tests, tags left out. Where a name states a change or a piece, a line headed by the entry shows the natural chain unless it says otherwise. Residues count along the entry.
UniProt Q8CC27: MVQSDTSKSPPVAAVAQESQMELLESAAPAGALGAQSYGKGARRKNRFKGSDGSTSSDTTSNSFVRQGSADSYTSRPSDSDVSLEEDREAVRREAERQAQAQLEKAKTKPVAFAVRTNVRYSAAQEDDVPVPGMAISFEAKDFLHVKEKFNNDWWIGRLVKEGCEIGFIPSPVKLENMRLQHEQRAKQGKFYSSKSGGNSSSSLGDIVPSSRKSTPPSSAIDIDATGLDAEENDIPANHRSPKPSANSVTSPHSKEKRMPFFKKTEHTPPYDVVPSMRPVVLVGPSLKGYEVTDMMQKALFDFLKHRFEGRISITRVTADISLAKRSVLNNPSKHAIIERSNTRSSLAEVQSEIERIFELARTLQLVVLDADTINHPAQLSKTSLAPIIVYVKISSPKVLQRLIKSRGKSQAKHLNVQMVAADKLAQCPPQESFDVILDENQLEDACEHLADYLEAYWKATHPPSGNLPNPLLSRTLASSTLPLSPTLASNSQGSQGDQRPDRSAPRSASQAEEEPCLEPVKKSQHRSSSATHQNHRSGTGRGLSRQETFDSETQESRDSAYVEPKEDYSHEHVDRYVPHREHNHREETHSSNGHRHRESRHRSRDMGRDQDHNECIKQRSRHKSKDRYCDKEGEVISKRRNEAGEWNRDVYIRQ
UniProt Q60823: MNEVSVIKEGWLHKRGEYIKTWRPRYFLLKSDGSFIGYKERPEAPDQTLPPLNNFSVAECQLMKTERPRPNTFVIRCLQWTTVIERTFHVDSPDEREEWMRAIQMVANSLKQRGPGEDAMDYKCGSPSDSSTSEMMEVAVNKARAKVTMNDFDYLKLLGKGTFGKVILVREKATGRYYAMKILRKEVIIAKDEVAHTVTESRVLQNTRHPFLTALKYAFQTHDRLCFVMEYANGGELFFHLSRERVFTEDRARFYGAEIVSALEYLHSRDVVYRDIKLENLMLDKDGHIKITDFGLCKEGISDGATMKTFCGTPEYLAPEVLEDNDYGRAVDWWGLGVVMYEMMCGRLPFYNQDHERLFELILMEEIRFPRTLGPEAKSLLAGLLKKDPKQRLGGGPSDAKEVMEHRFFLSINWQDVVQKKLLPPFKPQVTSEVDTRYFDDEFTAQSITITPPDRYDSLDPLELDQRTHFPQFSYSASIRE
UniProt Q9WUA6, residues 2-479: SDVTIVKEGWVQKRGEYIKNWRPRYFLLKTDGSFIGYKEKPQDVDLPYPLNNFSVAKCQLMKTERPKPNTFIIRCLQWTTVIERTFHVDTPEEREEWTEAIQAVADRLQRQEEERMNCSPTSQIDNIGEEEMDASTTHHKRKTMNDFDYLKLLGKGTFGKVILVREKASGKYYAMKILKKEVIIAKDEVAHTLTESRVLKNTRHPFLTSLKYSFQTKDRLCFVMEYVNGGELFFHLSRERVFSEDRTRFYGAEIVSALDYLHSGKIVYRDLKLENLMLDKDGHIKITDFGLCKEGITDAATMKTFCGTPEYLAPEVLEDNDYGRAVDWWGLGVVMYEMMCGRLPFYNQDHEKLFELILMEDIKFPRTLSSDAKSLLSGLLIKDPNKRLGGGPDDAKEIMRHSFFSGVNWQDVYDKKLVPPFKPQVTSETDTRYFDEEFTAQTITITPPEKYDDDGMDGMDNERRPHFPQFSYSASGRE

Experiments:
[1] = biological target: Cavβ2 (Ca2+ beta2 channel accessory subunit), endogenous, mouse heart (mouse) (UniProt Q8CC27); assay: co-immunoprecipitation from mouse cardiac extracts
[2] = biological target: Cavβ2 (Ca2+ beta2 channel accessory subunit), endogenous, mouse heart (mouse) (UniProt Q8CC27); assay: co-immunoprecipitation: Akt isoforms immunoprecipitated from WT cardiac extracts of mice treated or not with insulin, assayed for Cavβ2
[3] = biological target: Cavβ2 (Ca2+ beta2 channel accessory subunit), endogenous, mouse heart (mouse) (UniProt Q8CC27); assay: co-immunoprecipitation: Akt isoforms immunoprecipitated from WT mouse cardiac extracts, assayed for Cavβ2

Measured: binding

Akt2, endogenous, mouse heart (from UniProt Q60823 1-481) (enzyme)
binds: all assays above

Akt3, endogenous, mouse heart (from UniProt Q9WUA6 2-479) (enzyme)
binds: all assays above
